Laboratory results as given in doi:10.1101/2023.05.05.539554.
Read-outs that look alike come from different tables or passages of the source. Results are given in words; binding and its absence hold for the method and conditions named. In cells and extracts the contact can be indirect. Here binding means that the protein was enriched with, or labelled near, the bait; the list need not be complete. Tags and fused reporters may be left off the sequences shown.

T1: LST8 fused to the promiscuous biotin ligase TurboID with a triple haemagglutinin (HA) tag, TID-LST8 (UniProt Q9LV27)
T1 sequence: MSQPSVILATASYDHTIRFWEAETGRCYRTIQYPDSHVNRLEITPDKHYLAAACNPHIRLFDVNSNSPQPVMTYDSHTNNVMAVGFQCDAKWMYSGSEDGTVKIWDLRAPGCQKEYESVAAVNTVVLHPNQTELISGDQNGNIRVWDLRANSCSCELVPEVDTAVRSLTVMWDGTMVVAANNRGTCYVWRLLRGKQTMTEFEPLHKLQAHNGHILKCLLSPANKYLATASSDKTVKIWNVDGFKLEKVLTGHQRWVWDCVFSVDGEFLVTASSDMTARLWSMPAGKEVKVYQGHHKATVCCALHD

T2: LST8 fused to the promiscuous biotin ligase TurboID with a triple haemagglutinin (HA) tag, LST8-TID (UniProt Q9LV27)
T2 sequence: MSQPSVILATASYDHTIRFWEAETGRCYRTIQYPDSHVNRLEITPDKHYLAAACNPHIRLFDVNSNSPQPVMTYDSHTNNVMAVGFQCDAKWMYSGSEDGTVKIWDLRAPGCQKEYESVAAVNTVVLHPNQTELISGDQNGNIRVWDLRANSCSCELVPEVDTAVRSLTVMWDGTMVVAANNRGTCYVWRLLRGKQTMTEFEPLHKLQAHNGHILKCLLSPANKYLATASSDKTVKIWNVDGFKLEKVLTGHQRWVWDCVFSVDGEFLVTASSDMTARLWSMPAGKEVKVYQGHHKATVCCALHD


Columns and labels:
Assay in all cases: proximity labelling
[1] = target: T1, LST8 fused to the promiscuous biotin ligase TurboID with a triple haemagglutinin (HA) tag, TID-LST8
[2] = target: T2, LST8 fused to the promiscuous biotin ligase TurboID with a triple haemagglutinin (HA) tag, LST8-TID
[3] = target: T1, LST8 fused to the promiscuous biotin ligase TurboID with a triple haemagglutinin (HA) tag, TID-LST8; remark: listed apart in the source
[4] = target: T1, LST8 fused to the promiscuous biotin ligase TurboID with a triple haemagglutinin (HA) tag, TID-LST8; remark: listed apart in the source

Molecule	binding [1]	binding [2]	binding [3]	binding [4]
RSH3-GFP (from UniProt Q9SYH1) (enzyme)	binds	binds	binds	
RSH3_(39-221)-GFP (domain or fragment, UniProt Q9SYH1 39-221) SSASSSTSSPTIGGLSLLFSGASVKSSSSSSSSHPSVGEELASIRHDRSEDRTLSGSFCYSPSKFIGSSYLKRDHQSPVSVLHGPISSGNSPPMRISRDRNLDGGSALRVGSSRLFNGFVRKAIGSCVDYDTDSVLVDEQLPFTMDDGFEGERRQPYARDLLRRAQLKHKIFEDESVIKAFYE				binds
